These results are taken from patent publication US20040086503A1.

No constants are given. Whether binding was seen depends on the method and setting. Some entries that bind do so weakly or less than the wild type.

The target in the assay is Rhesus IGF-IR (rhesus) (UniProt I2CWY3). As to the kind of experiment: immunoprecipitation and Western blot on cells.

B1: anti-IGF-IR antibody 2.13.2 (antibody, V domains shown)
VH: EVQLLESGGGLVQPGGSLRLSCTASGFTFSSYAMNWVRQAPGKGLEWVSAISGSGGTTFYADSVKGRFTISRDNSRTTLYLQMNSLRAEDTAVYYCAKDLGWSDSYYYYYGMDVWGQGTTVTVSS
VL: DIQMTQFPSSLSASVGDRVTITCRASQGIRNDLGWYQQKPGKAPKRLIYAASRLHRGVPSRFSGSGSGTEFTLTISSLQPEDFATYYCLQHNSYPCSFGQGTKLEIKR
Consider B1, for which the binding result is on record as “binds”.

B2: anti-IGF-IR antibody 2.12.1 (antibody, V domains shown)
VH: QAQLVESGGGLVKPGGSLRLSCAASGFTFSDYYMSWIRQAPGKGLEWVSYISSSGSTRDYADSVKGRFTISRDNAKNSLYLQMNSLRAEDTAVYYCVRDGVETTFYYYYYGMDVWGQGTTVTVSS
VL: DIQMTQSPSSLSASVGDRVTFTCRASQDIRRDLGWYQQKPGKAPKRLIYAASRLQSGVPSRFSGSGSGTEFTLTISSLQPEDFATYYCLQHNNYPRTFGQGTEVEIIR
In the case of B2, the binding result is “binds”.
